PubChem BioAssay AID1671195 | Yale University – 2021
Screen: 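Regulators of LDL receptor activity judged by labelled LDL uptake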 (primary screen). Cell system: human Huh7 hepatoma cells. Reagent: siRNA pool against human genes, 18 nM. Time to read-out: about 2 to 2.5 days of knockdown, then 8 h LDL uptake. Conditions: DiI-labelled LDL at 30 µg/ml for 8 h, in lipoprotein-deficient serum medium. Read-out: 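Per-cell DiI-LDL intensity by automated imaging; well means scaled to the plate median and given as a robust z-score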. Reading the numbers: robust z-score: higher = more LDL uptake after knockdown. Call rule: 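a gene counts as active if at least two replicate z-scores exceed ±2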.
In all, the deposit lists about 22,000 reagents; below is a part drawn at random. Of all reagents, about 1,510 (6.9%) are marked active. 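Active includes knockdowns raising or lowering LDL uptake; positive z-scores mean more uptake, negative mean less.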 The numbers tell different reagents against one gene apart.

robust z-score, replicate 1 | robust z-score, replicate 2 | robust z-score, replicate 3 | Outcome | gene symbol | reagent
2.18 | 2.3 | 1.66 | active | TIPIN | 1
-0.111 | 0.516 | 0.597 | inactive | TRAF3IP2 | 1
0.57 | 0.625 | 0.233 | inactive | NDUFB1 | 1
4.51 | 0.879 | 1.16 | inactive | IFT74 | 1
1.86 | 2.33 | 1.95 | active | GSTM3 | 1
0.433 | 0.519 | 1.43 | inactive | TTLL11 | 1
-1.07 | 0.147 | 1.26 | inactive | TTLL11 | 2
2.47 | 1.24 | 1.92 | active | TMEM169 | 1
1.92 | 1.34 | 1.09 | inactive | ITPRIP | 1
0.00108 | -0.912 | 1.18 | inactive | FAM135A | 1
-0.457 | 0.114 | -1.29 | inactive | HMG20A | 1
1.28 | 1.65 | 1.19 | inactive | STK31 | 1
1.49 | 1.86 | 2.51 | inactive | ATP13A1 | 1
0.988 | 0.626 | 0.707 | inactive | LOC440826 (retired record) | 1
-1.26 | -0.774 | 0.139 | inactive | CD86 | 1
-1.45 | -1.56 | -1.56 | inactive | ZNF549 | 1
0.763 | 1.08 | 1 | inactive | CXCL6 | 1
0.0863 | 0.188 | 0.691 | inactive | LOC400571 (retired record) | 1
-0.809 | -0.826 | -0.027 | inactive | SRSF5 | 1
-0.665 | 0.0778 | -0.274 | inactive | GABRR2 | 1
1.8 | -0.673 | 0.904 | inactive | HIVEP2 | 1
0.0683 | -0.976 | -0.401 | inactive | KLHL8 | 1
3.31 | 3.68 | 3.16 | active | SCN11A | 1
-0.0234 | -0.692 | -0.717 | inactive | RNF41 | 1
-0.403 | -0.308 | -0.0275 | inactive | RPP21 | 1
-0.0815 | -0.251 | 0.208 | inactive | NGF | 1
0.01 | -0.0185 | 0.0053 | inactive | PF4 | 1
0.545 | -0.201 | 0.492 | inactive | SLC26A5 | 1

Only “robust z-score, replicate 3” (2 entries from above):
TIPIN	1.66
TRAF3IP2	0.597
